Reference: patent US20080161419A1, “Prophylactic Antimigraine Agents” (priority 2004, published 2008)
Some results were stated once for a whole list of compounds, not compound by compound.

System: α1 receptor
Test: Affinity for other receptors: α1
Type: binding
Source text: Affinity of the compound of Preparation 3 for 5-HT1A, 5-HT1B, 5-HT2A, 5-HT2C, 5-HT3, 5-HT4, 5-HT6, α1, M1 and D2 receptors was verified using conventionally known techniques (Journal of Neurochemistry (1986) 47, 529-540; Molecular Pharmacology (1982) 21, 301-314; European Journal of Pharmacology (1985) 106, 539-546; Journal of Pharmacology Experimental Therapy (1992) 263, 1127-1132; British Journal of Pharmacology (1993) 109, 618-624; Molecular Pharmacology (1993) 43, 320-327; Molecular Pharmacology (1989) 35, 324-330; Cellular Molecular Neurobiology (1988) 8, 181-191; European Journal of Pharmacology (1988) 173, 177-182).

SMILES: CC1(O)c2ccccc2-c2ccc(C(=O)N=C(N)N)cc21.Cl (racemic) [Preparation 56]
- 5-HT2B and 5-HT7 receptor selectivity against α1 receptor: ≥ 100 times
